Data reported in BindingDB's records for doi:10.1002/1098-2396(20001215)38:4 (University of North Texas, 2000).

By UniProt entry, the sequences of proteins in these tests, tags left out.
UniProt P61169, whole entry: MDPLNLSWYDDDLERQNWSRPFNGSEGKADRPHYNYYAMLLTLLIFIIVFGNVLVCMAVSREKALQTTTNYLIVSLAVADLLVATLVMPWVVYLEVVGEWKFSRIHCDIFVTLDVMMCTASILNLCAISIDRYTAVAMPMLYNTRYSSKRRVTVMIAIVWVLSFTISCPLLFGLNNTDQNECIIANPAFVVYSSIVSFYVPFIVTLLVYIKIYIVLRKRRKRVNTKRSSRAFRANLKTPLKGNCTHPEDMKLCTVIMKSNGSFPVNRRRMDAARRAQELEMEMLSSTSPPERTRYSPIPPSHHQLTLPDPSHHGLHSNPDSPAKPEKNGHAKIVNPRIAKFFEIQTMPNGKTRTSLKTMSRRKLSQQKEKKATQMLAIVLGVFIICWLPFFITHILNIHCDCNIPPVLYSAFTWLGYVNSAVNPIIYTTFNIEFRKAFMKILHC

Target: D(2) dopamine receptor (Rattus norvegicus, UniProt P61169)

Ki: > 10 µM
Structure (SMILES): CC(C)NC[C@H](O)COc1cccc2ccccc12 [Propanolol,(+/-)]
